Results reported in the supplement of paper PMC10849652.
This is one part of the list.

By UniProt entry, the sequences of proteins in these tests, tags left out. Where a name states a change or a piece, a line headed by the entry shows the natural chain unless it says otherwise.
UniProt Q969K3: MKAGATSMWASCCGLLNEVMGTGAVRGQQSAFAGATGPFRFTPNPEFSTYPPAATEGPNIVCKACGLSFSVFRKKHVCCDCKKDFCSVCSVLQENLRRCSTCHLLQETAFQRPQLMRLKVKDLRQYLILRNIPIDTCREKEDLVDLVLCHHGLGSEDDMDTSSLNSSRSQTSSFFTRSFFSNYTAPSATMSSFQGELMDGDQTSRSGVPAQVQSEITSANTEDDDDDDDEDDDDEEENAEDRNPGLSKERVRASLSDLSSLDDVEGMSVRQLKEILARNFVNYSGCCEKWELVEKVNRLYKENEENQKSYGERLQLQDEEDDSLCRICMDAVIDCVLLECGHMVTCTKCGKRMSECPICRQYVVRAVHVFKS
UniProt Q8IZ73: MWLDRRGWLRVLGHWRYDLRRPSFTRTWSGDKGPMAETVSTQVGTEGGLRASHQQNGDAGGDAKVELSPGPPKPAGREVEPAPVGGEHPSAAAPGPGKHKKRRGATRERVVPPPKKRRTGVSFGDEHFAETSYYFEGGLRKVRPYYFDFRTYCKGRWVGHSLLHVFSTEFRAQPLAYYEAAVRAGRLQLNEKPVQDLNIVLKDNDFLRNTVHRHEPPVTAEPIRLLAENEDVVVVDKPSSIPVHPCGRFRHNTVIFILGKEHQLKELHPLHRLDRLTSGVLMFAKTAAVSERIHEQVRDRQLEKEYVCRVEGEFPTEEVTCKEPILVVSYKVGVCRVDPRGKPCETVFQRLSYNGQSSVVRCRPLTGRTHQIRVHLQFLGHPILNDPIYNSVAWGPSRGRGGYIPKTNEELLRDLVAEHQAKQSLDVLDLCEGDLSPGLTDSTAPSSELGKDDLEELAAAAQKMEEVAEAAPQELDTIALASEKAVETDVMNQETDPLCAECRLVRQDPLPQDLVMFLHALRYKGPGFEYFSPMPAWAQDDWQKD
UniProt Q9P2E9: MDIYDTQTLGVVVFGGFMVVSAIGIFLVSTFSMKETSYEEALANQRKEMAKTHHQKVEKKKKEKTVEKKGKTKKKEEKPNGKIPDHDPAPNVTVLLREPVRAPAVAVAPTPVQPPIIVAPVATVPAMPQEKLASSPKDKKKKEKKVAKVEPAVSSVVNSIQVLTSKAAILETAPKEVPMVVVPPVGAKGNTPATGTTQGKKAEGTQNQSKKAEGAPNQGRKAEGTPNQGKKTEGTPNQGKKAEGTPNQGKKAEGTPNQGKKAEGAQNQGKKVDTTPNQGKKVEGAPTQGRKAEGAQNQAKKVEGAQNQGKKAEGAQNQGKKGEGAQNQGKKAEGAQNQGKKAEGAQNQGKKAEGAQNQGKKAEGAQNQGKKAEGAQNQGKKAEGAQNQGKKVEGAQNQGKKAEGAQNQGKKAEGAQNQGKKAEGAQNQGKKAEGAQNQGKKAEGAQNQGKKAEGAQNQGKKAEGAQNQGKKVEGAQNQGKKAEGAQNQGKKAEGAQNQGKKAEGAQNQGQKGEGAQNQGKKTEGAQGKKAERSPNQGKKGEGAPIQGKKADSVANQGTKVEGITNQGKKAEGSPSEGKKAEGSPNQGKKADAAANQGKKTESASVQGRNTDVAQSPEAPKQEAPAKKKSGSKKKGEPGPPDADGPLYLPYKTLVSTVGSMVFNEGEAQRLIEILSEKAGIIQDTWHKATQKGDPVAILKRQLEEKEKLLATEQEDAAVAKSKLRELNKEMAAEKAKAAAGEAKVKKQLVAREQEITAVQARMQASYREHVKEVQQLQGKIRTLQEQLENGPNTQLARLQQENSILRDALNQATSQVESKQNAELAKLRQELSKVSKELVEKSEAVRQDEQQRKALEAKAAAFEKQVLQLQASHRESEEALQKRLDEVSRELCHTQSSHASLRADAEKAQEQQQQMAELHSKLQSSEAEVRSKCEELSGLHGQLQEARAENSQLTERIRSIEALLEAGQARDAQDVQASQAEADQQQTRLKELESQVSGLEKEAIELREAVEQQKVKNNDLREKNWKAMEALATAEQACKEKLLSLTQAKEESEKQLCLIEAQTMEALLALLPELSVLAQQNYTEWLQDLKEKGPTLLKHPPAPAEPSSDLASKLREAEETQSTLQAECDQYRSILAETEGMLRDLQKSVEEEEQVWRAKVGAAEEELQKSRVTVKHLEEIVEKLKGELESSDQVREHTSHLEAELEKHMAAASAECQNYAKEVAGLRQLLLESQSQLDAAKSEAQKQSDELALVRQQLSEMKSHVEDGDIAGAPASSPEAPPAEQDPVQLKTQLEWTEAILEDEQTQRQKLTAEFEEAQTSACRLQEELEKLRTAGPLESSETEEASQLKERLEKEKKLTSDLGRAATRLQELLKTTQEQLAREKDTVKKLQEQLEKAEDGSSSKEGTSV
UniProt Q96S38: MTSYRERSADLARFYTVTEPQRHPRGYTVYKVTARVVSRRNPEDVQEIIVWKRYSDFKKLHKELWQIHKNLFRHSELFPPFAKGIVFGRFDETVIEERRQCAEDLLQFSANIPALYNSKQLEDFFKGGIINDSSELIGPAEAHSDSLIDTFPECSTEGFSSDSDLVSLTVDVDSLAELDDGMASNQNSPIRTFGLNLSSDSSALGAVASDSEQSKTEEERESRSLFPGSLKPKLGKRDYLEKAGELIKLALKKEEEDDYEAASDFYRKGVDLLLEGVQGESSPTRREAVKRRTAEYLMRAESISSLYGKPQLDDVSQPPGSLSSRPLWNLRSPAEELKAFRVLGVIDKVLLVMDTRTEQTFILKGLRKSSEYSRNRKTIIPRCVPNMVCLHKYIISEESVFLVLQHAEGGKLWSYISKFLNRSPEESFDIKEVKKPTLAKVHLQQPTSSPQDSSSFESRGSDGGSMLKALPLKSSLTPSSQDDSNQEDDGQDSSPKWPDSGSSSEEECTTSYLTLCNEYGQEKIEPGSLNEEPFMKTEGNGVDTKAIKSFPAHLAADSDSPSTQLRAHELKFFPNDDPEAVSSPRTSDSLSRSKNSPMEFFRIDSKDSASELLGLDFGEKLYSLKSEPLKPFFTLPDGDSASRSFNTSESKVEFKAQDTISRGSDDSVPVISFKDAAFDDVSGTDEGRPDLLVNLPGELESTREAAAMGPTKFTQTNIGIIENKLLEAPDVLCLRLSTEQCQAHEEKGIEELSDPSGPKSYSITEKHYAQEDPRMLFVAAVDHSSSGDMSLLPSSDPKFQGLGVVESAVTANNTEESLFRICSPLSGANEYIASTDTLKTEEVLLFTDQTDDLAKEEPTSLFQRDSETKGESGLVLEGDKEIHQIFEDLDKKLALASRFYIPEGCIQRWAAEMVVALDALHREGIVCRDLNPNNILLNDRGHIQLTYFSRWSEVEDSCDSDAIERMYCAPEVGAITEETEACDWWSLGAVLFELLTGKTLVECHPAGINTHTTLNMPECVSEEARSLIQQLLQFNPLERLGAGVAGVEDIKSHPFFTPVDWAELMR
UniProt Q9H633: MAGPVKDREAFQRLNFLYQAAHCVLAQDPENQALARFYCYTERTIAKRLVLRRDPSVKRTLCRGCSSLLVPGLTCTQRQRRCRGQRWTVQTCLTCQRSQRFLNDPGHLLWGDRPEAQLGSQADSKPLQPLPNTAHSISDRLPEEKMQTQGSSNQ
UniProt Q9BWH6: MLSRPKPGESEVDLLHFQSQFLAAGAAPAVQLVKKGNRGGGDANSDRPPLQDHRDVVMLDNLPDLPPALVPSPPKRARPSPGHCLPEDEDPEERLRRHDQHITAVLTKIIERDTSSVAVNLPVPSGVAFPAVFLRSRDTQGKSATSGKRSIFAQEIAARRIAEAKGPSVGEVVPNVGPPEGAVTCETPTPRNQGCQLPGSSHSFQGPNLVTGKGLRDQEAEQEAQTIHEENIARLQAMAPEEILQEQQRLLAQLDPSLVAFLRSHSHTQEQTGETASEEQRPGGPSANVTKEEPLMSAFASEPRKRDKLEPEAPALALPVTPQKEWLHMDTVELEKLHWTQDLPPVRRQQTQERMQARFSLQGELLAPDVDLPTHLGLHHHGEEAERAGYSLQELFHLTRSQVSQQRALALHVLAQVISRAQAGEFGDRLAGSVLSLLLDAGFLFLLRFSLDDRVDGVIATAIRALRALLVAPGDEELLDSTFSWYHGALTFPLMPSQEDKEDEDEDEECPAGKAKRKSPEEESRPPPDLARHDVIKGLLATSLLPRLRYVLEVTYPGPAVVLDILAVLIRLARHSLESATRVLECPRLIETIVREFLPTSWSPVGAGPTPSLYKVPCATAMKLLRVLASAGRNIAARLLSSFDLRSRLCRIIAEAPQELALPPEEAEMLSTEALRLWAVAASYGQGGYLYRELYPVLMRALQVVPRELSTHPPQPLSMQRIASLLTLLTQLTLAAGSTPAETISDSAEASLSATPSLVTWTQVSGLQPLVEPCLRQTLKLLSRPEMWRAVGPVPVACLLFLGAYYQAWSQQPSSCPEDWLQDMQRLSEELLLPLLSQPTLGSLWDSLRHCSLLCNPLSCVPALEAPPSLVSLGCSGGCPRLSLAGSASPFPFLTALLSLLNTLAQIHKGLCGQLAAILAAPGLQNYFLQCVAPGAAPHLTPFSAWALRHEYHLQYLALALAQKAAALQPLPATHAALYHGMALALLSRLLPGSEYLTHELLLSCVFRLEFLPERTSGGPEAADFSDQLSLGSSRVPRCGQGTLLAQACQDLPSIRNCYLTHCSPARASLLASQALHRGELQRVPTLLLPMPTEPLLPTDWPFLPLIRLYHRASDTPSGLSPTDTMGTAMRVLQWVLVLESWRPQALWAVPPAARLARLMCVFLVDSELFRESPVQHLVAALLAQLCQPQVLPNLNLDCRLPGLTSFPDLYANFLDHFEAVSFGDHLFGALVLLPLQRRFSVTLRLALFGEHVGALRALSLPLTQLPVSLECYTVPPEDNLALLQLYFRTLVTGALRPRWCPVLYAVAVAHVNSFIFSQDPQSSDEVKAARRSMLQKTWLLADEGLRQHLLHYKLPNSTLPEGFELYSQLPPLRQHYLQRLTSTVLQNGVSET
UniProt P10155: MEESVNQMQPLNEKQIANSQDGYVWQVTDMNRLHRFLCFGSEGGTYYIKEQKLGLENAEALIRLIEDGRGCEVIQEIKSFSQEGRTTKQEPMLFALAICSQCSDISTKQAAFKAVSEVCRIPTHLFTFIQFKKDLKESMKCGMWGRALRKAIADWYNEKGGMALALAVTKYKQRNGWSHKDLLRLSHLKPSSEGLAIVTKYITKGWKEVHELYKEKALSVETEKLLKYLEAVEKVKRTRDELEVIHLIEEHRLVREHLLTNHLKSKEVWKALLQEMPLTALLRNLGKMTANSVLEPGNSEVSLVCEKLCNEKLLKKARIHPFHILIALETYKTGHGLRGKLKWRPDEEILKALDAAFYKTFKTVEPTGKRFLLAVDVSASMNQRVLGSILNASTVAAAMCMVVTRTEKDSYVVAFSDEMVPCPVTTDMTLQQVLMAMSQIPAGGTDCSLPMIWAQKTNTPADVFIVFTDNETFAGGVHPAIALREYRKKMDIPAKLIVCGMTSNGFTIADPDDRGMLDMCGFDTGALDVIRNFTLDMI
UniProt P10301: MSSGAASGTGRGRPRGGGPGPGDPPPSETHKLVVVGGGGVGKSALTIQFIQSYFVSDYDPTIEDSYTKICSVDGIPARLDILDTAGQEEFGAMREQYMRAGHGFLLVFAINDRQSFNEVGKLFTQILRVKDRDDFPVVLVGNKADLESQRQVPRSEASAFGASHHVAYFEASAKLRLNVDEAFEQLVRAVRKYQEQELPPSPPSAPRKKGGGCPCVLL
UniProt P13489: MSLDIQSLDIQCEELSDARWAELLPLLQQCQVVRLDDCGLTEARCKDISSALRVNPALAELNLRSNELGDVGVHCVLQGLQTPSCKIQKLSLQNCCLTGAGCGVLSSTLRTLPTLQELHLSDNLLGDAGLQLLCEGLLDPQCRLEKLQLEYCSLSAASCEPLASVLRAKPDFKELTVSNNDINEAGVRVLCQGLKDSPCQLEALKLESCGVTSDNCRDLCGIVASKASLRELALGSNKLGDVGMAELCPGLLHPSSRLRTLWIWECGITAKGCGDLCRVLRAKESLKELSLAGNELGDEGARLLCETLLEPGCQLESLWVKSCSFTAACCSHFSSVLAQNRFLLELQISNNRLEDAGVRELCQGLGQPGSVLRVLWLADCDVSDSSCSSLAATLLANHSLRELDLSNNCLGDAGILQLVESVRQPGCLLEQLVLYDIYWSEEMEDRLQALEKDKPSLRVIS
UniProt P31350, whole entry, looked up: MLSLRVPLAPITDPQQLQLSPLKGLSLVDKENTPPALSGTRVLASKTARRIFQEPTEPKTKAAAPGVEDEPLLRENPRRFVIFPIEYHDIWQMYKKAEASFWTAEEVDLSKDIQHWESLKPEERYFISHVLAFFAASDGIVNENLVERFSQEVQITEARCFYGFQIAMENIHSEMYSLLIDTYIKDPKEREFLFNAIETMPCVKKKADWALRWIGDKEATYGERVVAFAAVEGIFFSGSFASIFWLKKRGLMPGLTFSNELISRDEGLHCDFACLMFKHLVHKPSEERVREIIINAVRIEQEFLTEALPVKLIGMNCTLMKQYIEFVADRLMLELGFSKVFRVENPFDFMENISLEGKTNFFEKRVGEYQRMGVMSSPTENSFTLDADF

What follows are targets tested with c1cn2cc(-c3ccc4cn[nH]c4c3)nc(Nc3ccc(N4CCOCC4)cc3)c2n1 [entospletinib] (assay: log2 fold change, soluble protein after heating vs DMSO (PISA); higher = thermal stabilisation; K562 cells, 10 uM, 30 min; active = over 0.2 and 3.5 SD of the protein, either way, in both replicates (recomputed)).
Method in brief: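 K562 cells at 2×10^6 cells/mL were treated for 30 min with 10 μM compound, and aliquots were heated for 3 min over 48°C-58°C before pooling. Extraction used PBS with 0.5% NP-40 at 4°C, and soluble protein was the supernatant after 21,000xg for 90 min, measured by TMTpro 16plex LC-MS/MS with channel sums equalised. Thermal stability values, relative to control samples and from duplicates, are log2 fold changes.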

log2 fold change, inactive:
RNF34 isoform 2 (UniProt Q969K3) 0
RPUSD2 (UniProt Q8IZ73) 0.011
RRBP1 (UniProt Q9P2E9) 0.029
RPL35 (UniProt P42766) 0.116
RPL22 (UniProt P35268) 0.092
RPS7 (UniProt P62081) 0.118
RPL35A (UniProt P18077) 0.037
RPS27 (UniProt P42677) 0.102
RPL32 (UniProt P62910) 0.107
RPL28 (UniProt P46779) 0.128
RPS6KC1 (UniProt Q96S38) 0.208
RPS15A (UniProt P62244) 0.034
RPP21 isoform 4 (UniProt Q9H633) 0.082
RPAP1 (UniProt Q9BWH6) -0.009
RPLP0 (UniProt P05388) 0.08
RPL34 (UniProt P49207) 0.097
RO60 (UniProt P10155) 0.04
RPL26L1 (UniProt Q9UNX3) 0.097
RRAS (UniProt P10301) 0
RNH1 (UniProt P13489) -0.005
RPL36AL (UniProt Q969Q0) 0.095
RPL26 (UniProt P61254) 0.021
RRM2 isoform 2 (UniProt P31350) 0.017

Reprinted from the results shown for reference:
log2 fold change, inactive:
RNH1 (UniProt P13489) -0.005
RPL36AL (UniProt Q969Q0) 0.095
